From US10828317B2, “Method of treating bacterial infections” (priority 2016, dated 2020)
Converted amounts (≈) assume the structure as drawn. At least one compound was matched to its structure with a doubt left.

How the values were obtained:
S. aureus strain no 13 = experiment: MIC vs S. aureus LMG 15975, MRSA; details: 2 μg/ml of trimethoprim, uridine 0 μg/ml
E. coli strain no 2 = experiment: MIC vs E. coli LMG 15862, penicillin resistant; details: 2 μg/ml of trimethoprim
K. pneumoniae EN0262 = details: commercial antibiotics; data provided by IMBIM, BMC, Uppsala University; cited from earlier work

## O=c1[nH]c(=O)n([C@H]2C[C@H](O)[C@@H](CO)O2)cc1Br [BrdUrd]
S. aureus strain no 13
  MIC BrdUrd: >4 ≤ 8
E. coli strain no 2; uridine 0 μg/ml
  MIC BrdUrd: >16 ≤ 32
E. coli strain no 2; uridine 10 μg/ml
  MIC BrdUrd: >8 ≤ 16
E. coli strain no 2; uridine 100 μg/ml
  MIC BrdUrd: >4 ≤ 8

## C[C@@H](O)[C@H]1C(=O)N2C(C(=O)O)=C(SCCN=CN)C[C@H]12 [IPM, imipenem]
K. pneumoniae EN0262
  MIC: >4 µg/mL

## CN(C)[C@@H]1C(O)=C(C(N)=O)C(=O)[C@@]2(O)C(O)=C3C(=O)c4c(O)cccc4[C@@](C)(O)[C@H]3C[C@@H]12 [TET, tetracycline]
K. pneumoniae EN0262
  MIC: 4 µg/mL (≈ 9 µM)
